pKd: −log10 of the molar value. Like-named read-outs stand apart in the source and are kept apart here. At least one structure is not confirmed: it was looked up by name or label, or the drawing left a doubt.
Target: T1, KDR-Fc fusion protein (Homo sapiens, UniProt P35968)
T1 construct: purchased R & D Systems (Minneapolis, Minn.) 357-KD-050
Assay: BIAcore surface plasmon resonance binding of synthetic polypeptides to immobilized KDR-Fc
Protocol: Binding affinity of selected peptides from the various rounds of selection was tested using a BIAcore surface plasmon resonance spectrophotometer. Polypeptides selected from Tables 1, 2, and 3 were synthesized by solid phase synthesis using the sequence as shown in the tables above and an N-terminal flanking peptide, acetyl-Ser-Gly-, and a C-terminal flanking peptide, -Gly-Ser. A KDR-Fc fusion protein target was immobilized on a BIAcore chip, and the synthetic polypeptides were flowed over the chip to measure the KD of the polypeptides with respect to the KDR target.

By UniProt entry, the sequences of proteins in these tests, tags left out. Chains listed by the source or under a name are the forms on record and can include a tag or linker.
UniProt P35968, with tags, fused parts or gaps limits assumed: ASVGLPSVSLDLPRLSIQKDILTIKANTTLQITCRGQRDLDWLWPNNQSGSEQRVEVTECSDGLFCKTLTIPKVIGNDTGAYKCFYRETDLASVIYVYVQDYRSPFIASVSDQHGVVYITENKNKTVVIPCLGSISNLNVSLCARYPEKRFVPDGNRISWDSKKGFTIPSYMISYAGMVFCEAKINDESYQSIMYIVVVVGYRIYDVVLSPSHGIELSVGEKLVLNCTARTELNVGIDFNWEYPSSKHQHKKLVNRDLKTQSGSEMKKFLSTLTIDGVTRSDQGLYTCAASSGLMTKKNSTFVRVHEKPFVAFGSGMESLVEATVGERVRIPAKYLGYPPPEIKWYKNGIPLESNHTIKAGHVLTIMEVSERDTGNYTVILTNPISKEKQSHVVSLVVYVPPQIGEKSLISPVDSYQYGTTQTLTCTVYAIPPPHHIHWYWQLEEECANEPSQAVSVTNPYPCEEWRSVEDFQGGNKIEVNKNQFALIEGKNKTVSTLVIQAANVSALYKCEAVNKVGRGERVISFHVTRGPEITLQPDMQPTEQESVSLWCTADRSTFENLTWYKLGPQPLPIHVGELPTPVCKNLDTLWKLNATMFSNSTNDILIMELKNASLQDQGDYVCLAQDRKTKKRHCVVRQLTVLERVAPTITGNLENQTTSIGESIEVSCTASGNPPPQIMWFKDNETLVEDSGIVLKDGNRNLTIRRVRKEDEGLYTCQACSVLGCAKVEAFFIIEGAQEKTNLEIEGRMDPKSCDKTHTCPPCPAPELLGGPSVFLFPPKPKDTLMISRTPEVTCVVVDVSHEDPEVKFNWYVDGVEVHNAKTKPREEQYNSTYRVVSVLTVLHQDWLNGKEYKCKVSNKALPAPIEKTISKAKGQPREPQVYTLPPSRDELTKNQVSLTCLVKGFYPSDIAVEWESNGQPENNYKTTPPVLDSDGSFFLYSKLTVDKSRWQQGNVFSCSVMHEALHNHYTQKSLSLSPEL

[1] = BIAcore SPR, KDR-Fc fusion immobilized on chip, synthetic polypeptide with acetyl-Ser-Gly- and -Gly-Ser flanks, read-out: KD

Structure (SMILES)	pKd [1]	pKd (restated in discussion, b108, read-out: KD with respect to the KDR target)	pKd (restated in discussion, b108, read-out: binding to KDR target as a free polypeptide)
CC[C@H](C)[C@@H]1NC(=O)[C@H](CCC(N)=O)NC(=O)[C@H](Cc2c[nH]cn2)NC(=O)[C@H](Cc2c[nH]cn2)NC(=O)[C@@H](NC(=O)[C@@H](NC(=O)[C@@H](NC(=O)[C@H](CCCNC(=N)N)NC(=O)CNC(=O)[C@H](CO)NC(C)=O)[C@@H](C)O)[C@@H](C)O)CSSC[C@@H](C(=O)N[C@H](C(=O)N[C@@H](CC(N)=O)C(=O)N[C@@H](Cc2ccc(O)cc2)C(=O)NCC(=O)N[C@@H](CO)C(=O)O)C(C)C)NC(=O)[C@H]([C@@H](C)CC)NC(=O)[C@H](CCCCN)NC(=O)CNC(=O)[C@H](Cc2c[nH]cn2)NC(=O)[C@@H]2CCCN2C(=O)CNC(=O)[C@H](CO)NC1=O [SEQ ID NO: 22, RTTCHHQISGPHGKICVNY]	6.19	6.19	–
CC(=O)N[C@@H](CO)C(=O)NCC(=O)N[C@@H](CCCNC(=N)N)C(=O)N[C@@H](CC(C)C)C(=O)N[C@@H](CC(=O)O)C(=O)N[C@H]1CSSC[C@@H](C(=O)N[C@H](C(=O)N[C@@H](CO)C(=O)N[C@@H](Cc2ccc(O)cc2)C(=O)NCC(=O)N[C@@H](CO)C(=O)O)C(C)C)NC(=O)[C@H](C(C)C)NC(=O)[C@H](CCCCN)NC(=O)CNC(=O)[C@H](Cc2ccc(O)cc2)NC(=O)[C@@H]2CCCN2C(=O)CNC(=O)[C@H](CO)NC(=O)[C@H](Cc2ccccc2)NC(=O)[C@H](C(C)C)NC(=O)[C@H](CCCCN)NC(=O)[C@H](CC(=O)O)NC1=O [SEQ ID NO: 49, RLDCDKVFSGPYGKVCVSY]	6.00	–	6.00

From patent US20030186223A1, “Modular recombinatorial display libraries” (Dyax Corp., priority 2002, published 2003)
